Hit rate of the full screen: of about 53,000 sequences, about 3,700 (7%) were called active.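 How the source made its calls: active means gene knockdowns whose robust z-score for IL-1 alpha signal is at least 2 or at most -2, so actives lie on both sides; inactive means the rest.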 The list shows a part of the results.
Assay: Components of the Cytosolic LPS Sensing Pathway: Gene Identification via Genome-wide siRNA Screen;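 further: robust z of the log signal after scaling to non-targeting control siRNA wells of the plate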
Conditions: RAW264.7 macrophages, IL-1a HTRF, actives lie on both sides, screened at 100 nM (by protocol), cells primed 5 h with Pam3CSK4 first
Method in brief: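 Knockdown: 100 nM siRNA, 48h, RAW264.7. Stimulation: Pam3CSK4 5 h, then LipidA via TransIT-TKO 24 h. Output: supernatant IL-1a HTRF, negative-control-normalized, log robust z-score; viability by CellTiter-Glo.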

z-score, inactive:
GGAGUCCUACGUCAAAGAATT against Pigz -0.251
GCCUGUCUGCCACUUACAATT against St8sia3 1.22
CCUGGAUCAUAUAAUAGAGTT against Dffb -0.237
GCAUUUUAGACUCAGAAUCTT against Car3 -0.047
GGAGAAGGUGACUUAAUAGTT against 9430077A04Rik 0.76
GCUGUACGUAGAUUCCAGATT against Mmp21 1.48
GGUUGAAAACUAAGAACUCTT against Pglyrp2 0.791
GGCGUGGUUUCUGUCUGUUTT against Ip6k1 0.122
CCAUACACAGUAUAAUCAATT against Galntl6 1.64
GGUGAACAGAAGGACAGAUTT against Gm4736 0.479
GGAAUUGAGUGGUUGUAUCTT against 4933427D14Rik -0.264
GCACUACCACUGUCAGCAATT against Ldb3 -0.734
GCCCUACUGUCAAAUAGGATT against Pxmp4 0.678
GGCAACACUUAAGCCUGAGTT against Proser3 -1.53
GGCAGAUCCAAGGCUAUUATT against Olfr901 -0.119
CCCAACAAAAUGCAUCAAUTT against Nrg3 0.211
GGAAGAUUAUAAAAACAGGTT against Togaram1 -0.57
GGUCAAGACAAUCUGAUCATT against St3gal3 -1.52
GGAGAAGCUAUGGUAUUACTT against Apc2 -0.798
GGAAUUUUAUCCUGUAUGCTT against Tmem38b 0.251
CCUUCAGGAGAAUAAUUGUTT against Prkar2b -0.522
GCUCCAGGCAUUGAGAAUGTT against Hcfc1r1 1.98
GCAGGACUAUGUCAACCUATT against Atp6v0d2 1.44
CCUAUCCUUCUCUGACAUCTT against Olfr371 -0.25
CCGUAUUUAUAUUGGUUACTT against Phlda2 0.78
CCUCGAAUGCAGACGUACGTT against Sdhb 1.67
CCUUGUAGCUCUGAGGAUATT against Teddm3 -0.529
GGGAGGGUACAGAAAUUUATT against Spz1 0.902
CCGCCAGACCUUCAUUACCTT against Chia1 -0.515
GGAGGAUCAGAGAACAGAGTT against Alms1 -0.345
CCUGCAAUCAAAACAUCAATT against Vmn1r10 1.13
GGAGAAGUUUGGCAAGCCCTT against Hdgf -0.802
GGAAUGUUCCUUCGAGCAGTT against Ccdc28b -0.197
GGUGGCCCUUAAACGGAAGTT against Spata16 0.87
GGAAGGACAGAAGAGGCCATT against Slc22a13 -1.77
GGAUACCACCAUCAAUGAGTT against Atp6v1f -0.273
GGCAAAUGAGACCUCAGAATT against Cpxm1 -1.06
GGAACAUCUUCAAAGAAGATT against Minar1 -0.963
GGCACAAUAAAAUAUAAGGTT against Srprb 0.317
GCCAUUUGAGUAUGUUGCATT against Ccdc120 -0.606
GCACCAGCCCUAUAAACUGTT against Frmd8 1.65
GGCUAAAAAUCUCAUAGAGTT against Zpbp -0.548
GCCAUGUAGCACGUAACAGTT against Haus6 -0.368
CCAAUAAGUACAGCACCUUTT against C1ql4 -0.15
GGUAUUUAGGUUGAUAACATT against Kbtbd8 -0.206
GGCCUACAACAACCUCAUUTT against Crat -1.69
CCUGGUACUCCAGAAUGUUTT against Sh3tc1 -1.08
GGAACUGGAGAUGCACAGCTT against Mtcl1 1.2
GCAUUUCCUUAACACUCCCTT against Msmb -0.614
CCCUUGGCCAAGGAACAUUTT against 4921509C19Rik -0.118
GGCUCACCCUAACUUUCCATT against Akr1c18 -0.737
GGGACAGAGCCGAAAGAGUTT against Mrpl33 -1.39
GGCAAAAUAAAGCAGUGGUTT against Mrps25 -0.598
GGCACAAUUGAGGAGCGUATT against Ino80 -1.27
GGAAGAUCCAUUUAAUGUATT against Eps15 1.14
GCAUACGAAGGACAACCUGTT against Bspry 1.81
GGAUAAUGUCUCCUGCUUGTT against Plk3 -1.37
GGACAGUUCCUUCAGCACCTT against Bmf -0.0699
GGUUUUCAAGUUUUAGUGUTT against Gsta2 1.15
GGUAUUUUUUACAGGACCATT against Tmem115 1.13
GGCCUUUCACUUUCACUGGTT against Car6 0.383

Reprinted at random: 3 entries already listed
z-score, inactive:
GCAUUUCCUUAACACUCCCTT against Msmb -0.614
GGAAUGUUCCUUCGAGCAGTT against Ccdc28b -0.197
CCUCGAAUGCAGACGUACGTT against Sdhb 1.67

Following part.

z-score, active:
GGCAGUAAUAGGAGACCAUTT against Ces1d 2.76
GGAGUACGUGAUUGCUCUGTT against Rcvrn -2.45
GCGAUUCAGAGACCUAUGGTT against Aven -2.22
GGAGAUGAAAAGAGAAAUCTT against Cct6b 2.41
GCUCGUGUCAGAACCGAUGTT against Rwdd3 2.39
CCACACGUUCCAUUUCUCGTT against Hilpda -2.65
GGCUGAUGGAAGAAUAUGATT against Actn2 -2.2

Reference: PubChem BioAssay AID1508600 (Functional Genomics Laboratory (NCATS/FGL), 2020)
